# Measurements published in patent publication US20080300135A1, “5-Alkyl-7-Amino-6-Heteroaryl-1,2,4-Triazolo[1,5-A]Pyrimidine Compounds and Their Use for Controlling Harmful Fungi” (BASF Aktiengesellschaft, priority 2005, published 2008).
# Some entries share one result that the patent states for a list of compounds.
# System: Septoria tritici
# Test: Activity against the speckled leaf blotch pathogen in the microtiter test
# Type: cell-based
# Conditions: 125 ppm, day 7 after inoculation, absorption 405 nm, control = 100%
smiles,measurement,value
"Cc1cc(C)n(-c2c(C)nc3ncnn3c2N2CCC(C)CC2)n1 [Compound C-1, 6-(3,5-Dimethylpyrazol-1-yl)-5-methyl-7-(4-methylpiperidin-1-yl)-[1,2,4]-triazolo[1,5-a]pyrimidin]",relative growth,at most 9%
